Test results from patent US12453715B2, “Use of artemether in the prevention and treatment of Alzheimer's disease” (UNIVERSITY OF MACAU, priority 2018, dated 2025).
For at least one compound, name, drawing or mass did not settle the structure.

Legend:
Aβ and p-tau = experiment: Aβ deposition and Tau phosphorylation (immunohistochemistry, Congo red, Western blot); format: in vivo; details: 3xTg AD mice, daily intraperitoneal injections for 1 month
[1] = tested on: choline acetyltransferase (ChAT); experiment: Western blot of ChAT in the brain of C57 mice; format: in vivo; details: 6-week-old C57 mice, intraperitoneal injection, an hour after injection
3xTg AD mice [2] = experiment: MDA and SOD levels in brain tissue; format: in vivo; details: in comparison with untreated animals
[3] = tested on: SH-SY5Y human neuroblastoma cells; experiment: MTT assay, Aβ1-42-induced cytotoxicity in SH-SY5Y cells; format: cell-based; details: 1 μM Aβ1-42
[4] = tested on: choline acetyltransferase (ChAT); experiment: Western blot of ChAT in D407 cells; format: cell-based; details: epithelial D407 cells
3xTg AD mice [5] = experiment: HE, Nissl and TUNEL staining of brain cortex sections; format: in vivo; details: daily intraperitoneal injections for 1 month
AMPK/GSK3β pathway = experiment: Western blot of AMPK/GSK3β pathway, Nrf2 and HO-1 in brain; format: in vivo; details: 3xTg AD mice
Bax and Bcl2 proteins = experiment: Western blot of Bax and Bcl2 in brain tissue; format: in vivo; details: 3xTg AD mice brain, daily intraperitoneal injections for 1 month
IL-18 and NF-KB = experiment: Western blot of IL-18 and NF-KB in brain; format: in vivo; details: 3xTg AD mice
3xTg AD mice [6] = experiment: Morris water maze test in Alzheimer's disease transgenic mice; format: in vivo; details: 12-months-old 3xTg AD mice, artemether 5 or 20 mg/kg daily intraperitoneally for 4 weeks
[7] = tested on: choline acetyltransferase (ChAT); experiment: Western blot of ChAT in PC12 cells; format: cell-based; details: neuronal PC12 cells
[8] = tested on: choline acetyltransferase (ChAT); experiment: Western blot of ChAT in HT22 cells; format: cell-based; details: hippocampal neuronal HT22 cells
3xTg AD mice [9] = experiment: NeuN staining of cortical neurons; format: in vivo; details: aged 3xTg AD mice, daily intraperitoneal injections for 1 month
[10] = tested on: AMPK/GSK3β (ser9) signaling pathway; experiment: Western blot of AMPK and GSK3β (ser9) phosphorylation in PC12 cells exposed to Aβ1-42; format: cell-based; details: artemether pretreatment then 1 μM Aβ1-42, concentration-dependent
[11] = tested on: choline acetyltransferase (ChAT); experiment: Immunohistochemistry of ChAT in brain; format: in vivo; details: 3xTg AD mice, daily intraperitoneal injections for 1 month, concentration dependent
astrocytes (glial cells) = experiment: GFAP immunofluorescence staining (astrocyte activity) in brain; format: in vivo; details: 3xTg AD mice
[12] = tested on: mouse primary neural cell cultures; experiment: MTT assay, Aβ1-42-induced cytotoxicity in mouse primary neural cell cultures; format: cell-based; details: mouse primary nerve cell cultures, 1 μM Aβ1-42
3xTg AD mice [13] = experiment: Immunohistochemistry of Nestin (neurogenesis) in brain; format: in vivo; details: aged 3xTg AD mice, daily intraperitoneal injections for 1 month

For `CO[C@H]1O[C@@H]2O[C@@]3(C)CC[C@H]4[C@H](C)CC[C@@H]([C@H]1C)[C@@]24OO3` [artemether], the “Tau protein phosphorylation in the cortex” value (Aβ and p-tau) was “reduced”, the “deposition of Aβ in the cortex” value (Aβ and p-tau) was “reduced the deposition of Aβ” and the “ChAT levels in the brain” value [1] was “promoted the increase of ChAT levels”. The “MDA levels in brain” value (3xTg AD mice [2]) was “reduced significantly the MDA levels”, the “SOD content in brain” value (3xTg AD mice [2]) was “significantly increased” and the “protection from Aβ1-42-induced cell death (MTT)” value [3] was “protects these cells from Aβ1-42-induced cell death in a concentration-dependent manner”. For the same molecule, the “expression of ChAT” value [4] was “significantly increased the expression of acetylcholine transferase (ChAT)”, the “number of Nissl bodies” value (3xTg AD mice [5]; 3xTg AD mice cortex) was “increased the number of Nissl bodies” and the “apoptosis in the cortex (TUNEL)” value (3xTg AD mice [5]; 3xTg AD mice) was “significantly reduced apoptosis”. For the same molecule, the “vacuolar degeneration of neurons in the cortex (HE staining)” value (3xTg AD mice [5]; 3xTg AD mice) was “improved the vacuolar degeneration of neurons”, the “expression level of Nrf2 in the brain” value (AMPK/GSK3β pathway) was “increased the expression levels of Nrf2 and heme oxygenase-1 (HO-1)” and the “expression level of heme oxygenase-1 (HO-1) in the brain” value (AMPK/GSK3β pathway) was “increased the expression levels of Nrf2 and heme oxygenase-1 (HO-1)”. The “phosphorylation of AMPK in the brain” value (AMPK/GSK3β pathway) was “increased the phosphorylation of AMPK and GSK3β proteins”, the “phosphorylation of GSK3β (ser9) in the brain” value (AMPK/GSK3β pathway) was “increased the phosphorylation of AMPK and GSK3β proteins” and the “ratio of Bax/Bcl2” value (Bax and Bcl2 proteins) was “decreased the ratio of Bax/Bcl2”. The “expression level of IL-18 in the brain” value (IL-18 and NF-KB) was “reduced the expression levels of the inflammatory factors IL-18 and NF-KB”, the “expression level of NF-KB in the brain” value (IL-18 and NF-KB) was “reduced the expression levels of the inflammatory factors IL-18 and NF-KB” and the escape latency (3xTg AD mice [6]; place navigation test) was “shorter than that of 3xTg AD group”. For the same molecule, the “percentage of time spent in the target quadrant” value (3xTg AD mice [6]; spatial probe test) was “significantly higher compared to untreated mice”, the “expression of ChAT” value [7] was “significantly increased the expression of acetylcholine transferase (ChAT)” and the “expression of ChAT” value [8] was “significantly increased the expression of acetylcholine transferase (ChAT)”. For the same molecule, the “number of neurons in the cerebral cortex (NeuN staining)” value (3xTg AD mice [9]) was “increased the number of neurons”, the “phosphorylation of AMPK” value [10] was “alleviated the inhibitory effect of Aβ1-42 on the phosphorylation of AMPK and GSK3β (ser9)” and the “phosphorylation of GSK3β (ser9)” value [10] was “alleviated the inhibitory effect of Aβ1-42 on the phosphorylation of AMPK and GSK3β (ser9)”. The “number of ChAT positive cells in the brain” value [11] was “increased the number of ChAT positive cells”, the “expression of GFAP-positive cells in the brain” value (astrocytes (glial cells)) was “reduced the expression of GFAP-positive cells” and the “protection from Aβ1-42-induced cell death (MTT)” value [12] was “protects these cells from Aβ1-42-induced cell death in a concentration-dependent manner”. The “neurogenesis in the brain (Nestin)” value (3xTg AD mice [13]) was “enhanced neurogenesis”.
